Laboratory results published in PMC2854724, “In Vitro Screening of Environmental Chemicals for Targeted Testing Prioritization: The ToxCast Project” (Environmental Health Perspectives, 2009).

Experiments:
[1] = system: direct targets (130 direct assay measurements for human targets); assay: Number of hits in direct (cell-free HTS) assays for human targets; type: biochemical; conditions: 30-μM cutoff for activity; out of 130 direct human assay measurements
33 minimal pathways = assay: Pathway perturbation scores against the minimal set of 33 pathways; parameters: species or system human; conditions: 30-μM cutoff; out of 33 minimal pathways; activity in at least five pathway-mapped assays needed

Compound	Number of direct hits [1]	Number of minimal pathways hit (33 minimal pathways)
milbemectin	at least 20	–
emamectin benzoate	at least 20	–
COC(=O)N(OC)c1ccccc1COc1ccn(-c2ccc(Cl)cc2)n1 [pyraclostrobin]	–	at least 20
O=S(=O)(O)C(F)(F)C(F)(F)C(F)(F)C(F)(F)C(F)(F)C(F)(F)C(F)(F)C(F)(F)F [PFOS, perfluorooctane sulfonic acid]	at least 20	–
S=C([S-])NCCNC(=S)[S-].[Mn+2] [maneb]	at least 20	at least 20
c1cc[c]([Sn+]([c]2ccccc2)[c]2ccccc2)cc1 [fentin]	at least 20	–
O=[N+]([O-])c1cc(C(F)(F)F)c(Cl)c([N+](=O)[O-])c1Nc1ncc(C(F)(F)F)cc1Cl [fluazinam]	–	at least 20
CN(C)[C@@H]1C(O)=C(C(N)=O)C(=O)[C@@]2(O)C(O)=C3C(=O)c4c(O)cccc4[C@@](C)(O)[C@H]3[C@H](O)[C@@H]12 [oxytetracycline dihydrate]	at least 20	–
metiram-zinc	at least 20	at least 20
C=CCOC(Cn1ccnc1)c1ccc(Cl)cc1Cl (centres unmarked) [imazalil]	at least 20	–
mancozeb	at least 20	at least 20
